The supplement of paper PMC6078165

Tested on: MDAMB468
Experiment: relative JC-1 red fluorescence (viability) vs pre-drug, coculture with fibroblast (fraction); higher = more viable cancer cells
Conditions: 10 µM
Procedure: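 JC-1 labelled TNBC cells cocultured 1:1 (1,500 cells each) with CellTrace Violet stained primary or stromal fibroblasts in 384-well plates in FluoroBrite medium, treated with one of 42 anticancer drugs at 0.1, 1, 10 or 100 uM. JC-1 red fluorescence (mitochondrial integrity in cancer cells only) was read by plate reader every 8 h for 72 h. Values are normalised to each well's pre-drug value. The stock of one drug was tenfold lower, so its dose labels may be too high.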

CC[C@]1(O)C[C@@H]2CN(CCc3c([nH]c4ccccc34)[C@@](C(=O)OC)(c3cc4c(cc3OC)N(C)[C@H]3[C@@](O)(C(=O)OC)[C@H](OC(C)=O)[C@]5(CC)C=CCN6CC[C@]43[C@@H]65)C2)C1 [Vinblastine]
relative JC-1 red fluorescence
Conditions | 8 h | 16 h | 24 h | 32 h | 40 h | 48 h | 56 h | 64 h | 72 h
coculture fibroblast: C12385 | 0.8399 | 0.811 | 0.804 | 0.771 | 0.74 | 0.743 | 0.7077 | 0.673 | 0.6645
coculture fibroblast: H6013 | 0.8116 | 0.8622 | 0.831 | 0.841 | 0.816 | 0.83358 | 0.8051 | 0.793 | 0.76
coculture fibroblast: H6019 | 0.854 | 0.841 | 0.833 | 0.804 | 0.783 | 0.793 | 0.768 | 0.749 | 0.75
coculture fibroblast: H6076 | 0.88 | 0.87 | 0.96 | 0.971 | 0.91 | 0.903 | 0.859 | 0.839 | 0.874
coculture fibroblast: H6231 | 0.77449 | 0.919 | 0.872 | 0.857 | 0.818 | 0.795 | 0.74 | 0.727 | 0.711
coculture fibroblast: HADF | 0.8616 | 0.8807 | 0.838 | 0.865 | 0.804 | 0.805 | 0.778 | 0.769 | 0.772
coculture fibroblast: HCFa | 0.845 | 0.843 | 0.7985 | 0.793 | 0.744 | 0.745 | 0.706 | 0.682 | 0.659
coculture fibroblast: HCPF | 0.86 | 0.884 | 0.926 | 0.867 | 0.818 | 0.809 | 0.8526 | 0.835 | 0.742
coculture fibroblast: HHSteC | 0.867 | 0.881 | 0.858 | 0.849 | 0.817 | 0.834 | 0.775 | 0.753 | 0.723
coculture fibroblast: HMF | 0.805 | 0.9814 | 0.9525 | 0.9441 | 0.9031 | 0.8897 | 0.8476 | 0.8324 | 0.8
coculture fibroblast: HPFa | 0.874 | 0.883 | 0.863 | 0.827 | 0.816 | 0.836 | 0.79 | 0.799 | 0.746
coculture fibroblast: HUF | 0.914 | 0.868 | 0.854 | 0.8004 | 0.775 | 0.755 | 0.7294 | 0.7095 | 0.691
coculture fibroblast: Hs5 | 0.94143 | 0.969 | 0.9422 | 0.9317 | 0.869 | 0.846 | 0.795 | 0.766 | 0.7881
coculture fibroblast: Hs27A | 0.8288 | 0.844 | 0.784 | 0.812 | 0.763 | 0.77 | 0.744 | 0.72 | 0.721
coculture fibroblast: Hs343T | 0.8537 | 0.9856 | 0.971 | 0.964 | 0.916 | 0.899 | 0.866 | 0.845 | 0.83
coculture fibroblast: WS1 | 0.8465 | 0.809 | 0.778 | 0.736 | 0.691 | 0.663 | 0.629 | 0.59 | 0.577

Values are relative to the signal before dosing, not to a vehicle control; the signal also falls without drug.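 Fibroblast labels name human fibroblasts: mostly primary ones from tissues such as uterus (C12385, HUF), lung (H6013), bone (Hs27A), adrenal (HADF) and skin (WS1), plus mammary HMF and breast cancer-associated Hs343T. The cancer cells are basal-like or mesenchymal-like triple-negative breast cancer lines. The paper calls a changed response a hit when it shifts by more than 3x the replicate standard deviation. The tissue of the other fibroblasts is not given here.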
